In PMC11229374, “Unlocking the potential of protein-derived peptides to target G-quadruplex DNA: from recognition to anticancer activity” (Nucleic Acids Research, 2024):

Tests used:
c-KIT2 G4 [1] = test: Isothermal titration calorimetry (ITC) with c-KIT2 G4; assay type: binding, human; conditions: ITC at 25°C; for TΔS°: TΔS° = ΔH° – ΔG°; for ΔG°: ΔG° = -RT ln Ka
Procedure: (§1) ITC experiments were conducted at 25°C using a nano-ITC Low Volume calorimeter (TA instruments, Lindon, UT, USA). DNA and peptide solutions were prepared using the same batch of buffer (5 mM KH2PO4/K2HPO4 buffer containing 20 mM KCl, pH 7.0) to prevent differences in buffer composition and pH. Each titration consisted of 25 injections of a 2 μl peptide solution (280–400 μM) sequentially injected using a computer-controlled 50 μl syringe, into the calorimetric vessel (190 μl) containing the oligonucleotide (16–20 μM). A spacing of 300 s between each injection was applied to allow the system to reach the equilibrium. The heat generated by peptide dilution was assessed in a control experiment by injecting the peptide solution into the buffer (Supplementary Figure S30). All measurements were performed in triplicate. Subsequently, the interaction heat for each injection was calculated considering the correction for the heat of peptide dilution. The corrected heat values were plotted as a function of the molar ratio to provide binding isotherms. The isotherms were fitted with a multiple-sites binding model using the NanoAnalyze software (TA instruments) provided with the instrument. This analysis provided the equilibrium binding constant (Ka), binding enthalpy (ΔH°), and stoichiometry of interaction (n). The equilibrium dissociation constant (Kd), Gibbs free-energy change and entropy change were determined using the following relationships: Kd = 1/Ka, ΔG° = -RT ln Ka (R = 8.314 J mol^−1 K^−1, T = 298.15 K), and TΔS° = ΔH° – ΔG°.

[2] = CD secondary structure estimation (BeStSel), peptide alone; assay type: physicochemical; conditions: peptide 4 µM alone, CD 20°C, 5 mM KH2PO4/K2HPO4 pH 7.0, 20 mM KCl
HER2 G4 [3] = test: CD secondary structure estimation (BeStSel), peptide with HER2 G4; assay type: binding, human
HER2 G4 [4] = test: Isothermal titration calorimetry (ITC) with HER2 G4; assay type: binding, human; conditions: ITC at 25°C
Procedure: as §1

c-KIT2 G4 [5] = test: CD secondary structure estimation (BeStSel), peptide with c-KIT2 G4; assay type: binding, human
[6] = peptide 4 µM + HER2 G4 2 µM, CD 20°C, G4 signal subtracted
[7] = peptide 4 µM + c-KIT2 G4 2 µM, CD 20°C, G4 signal subtracted

## Ac-NHTANSIRHRFRVYLSKRL-NH2 [Myb^A400]
c-KIT2 G4 [1]
  n (stoichiometry of interaction): 2
  TΔS°: –21.0 (±9.0) kJ mol^−1
  ΔG°: –39.2 (±7.0) kJ mol^−1

## Ac-NHTGNSIRHRFRVYLAKRL-NH2 [Myb^A412]
c-KIT2 G4 [1]
  n (stoichiometry of interaction): 2
  TΔS°: –20.4 (±7.2) kJ mol^−1
  ΔG°: –38.4 (±5.8) kJ mol^−1

## Ac-NHTGNSIRHRFRVYLSKRL-NH2 [Myb^397–415]
[2]
  Estimated secondary structure content, Antiparallel: 23.2%
  Estimated secondary structure content, Helix: 0.0%
  Estimated secondary structure content, Others: 57.6%
  Estimated secondary structure content, Parallel: 0.0%
  Estimated secondary structure content, Turn: 19.2%
c-KIT2 G4 [1]
  n (stoichiometry of interaction): 2
  TΔS°: –9.2 (±3.1) kJ mol^−1
  ΔG°: –38.2 (±2.3) kJ mol^−1
HER2 G4 [3]; CD 200–250 nm, 20°C, in the presence of HER2 G4, G4 signal subtracted
  increase in the estimated helical content: ~20%
HER2 G4 [3]; [6]
  Estimated secondary structure content, Antiparallel: 20.5%
  Estimated secondary structure content, Helix: 22.7%
  Estimated secondary structure content, Others: 43.1%
  Estimated secondary structure content, Parallel: 0.0%
  Estimated secondary structure content, Turn: 13.8%
HER2 G4 [4]
  n (stoichiometry of interaction): 3
HER2 G4 [4]; TΔS° = ΔH° – ΔG°
  TΔS°: –24.4 (±5.1) kJ mol^−1
HER2 G4 [4]; triplicate
  ΔH°: –64.4 (±1.1) kJ mol^−1
HER2 G4 [4]; ΔG° = -RT ln Ka
  ΔG°: –40.0 (±4.0) kJ mol^−1
c-KIT2 G4 [5]; CD 200–250 nm, 20°C, in the presence of c-KIT2 G4, G4 signal subtracted
  increase in the estimated helical content: approximately 10%
c-KIT2 G4 [5]; [7]
  Estimated secondary structure content, Antiparallel: 22.4%
  Estimated secondary structure content, Helix: 10.0%
  Estimated secondary structure content, Others: 48.6%
  Estimated secondary structure content, Parallel: 0.0%
  Estimated secondary structure content, Turn: 19.1%
